Where a chain is given by its changes, count along the chain named. No constants are given. Whether binding was seen depends on the method and setting.
B1: SERK1 (SOMATIC EMBRYOGENESIS RECEPTOR KINASE 1) ectodomain (domain or fragment)
chain: ASANLEGDALHTLRVTLVDPNNVLQSWDPTLVNPCTWFHVTCNNENSVIRVDLGNAELSGHLVPELGVLKNLQYLELYSNNITGPIPSNLGNLTNLVSLDLYLNSFSGPIPESLGKLSKLRFLRLNNNSLTGSIPMSLTNITTLQVLDLSNNRLSGSVPDNGSFSLFTPISFANNLDLCGPVTSHPCPGS

Protein sequences, listed by entry. Tags and fused reporters are not part of them. Lines headed by an entry give the natural chain unless they say otherwise; changes in a name come on top.
UniProt Q9FZE4: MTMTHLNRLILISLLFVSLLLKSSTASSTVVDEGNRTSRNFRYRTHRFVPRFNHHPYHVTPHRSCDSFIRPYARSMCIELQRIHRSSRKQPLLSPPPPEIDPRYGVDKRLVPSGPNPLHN

Experiments:
[1] = target: T1, HSL1^N543AY544AN566A ectodomain (Arabidopsis) (UniProt Q9SGP2); experiment: SEC; Superdex 200 Increase 10/300 GL; 20 mM citric acid pH 5, 100 mM NaCl; 200 µg HSL1 or mutant with SERK1 without or with peptide, 1:1:1.5 molar ratio; fractions on SDS-PAGE; both purified
T1 sequence: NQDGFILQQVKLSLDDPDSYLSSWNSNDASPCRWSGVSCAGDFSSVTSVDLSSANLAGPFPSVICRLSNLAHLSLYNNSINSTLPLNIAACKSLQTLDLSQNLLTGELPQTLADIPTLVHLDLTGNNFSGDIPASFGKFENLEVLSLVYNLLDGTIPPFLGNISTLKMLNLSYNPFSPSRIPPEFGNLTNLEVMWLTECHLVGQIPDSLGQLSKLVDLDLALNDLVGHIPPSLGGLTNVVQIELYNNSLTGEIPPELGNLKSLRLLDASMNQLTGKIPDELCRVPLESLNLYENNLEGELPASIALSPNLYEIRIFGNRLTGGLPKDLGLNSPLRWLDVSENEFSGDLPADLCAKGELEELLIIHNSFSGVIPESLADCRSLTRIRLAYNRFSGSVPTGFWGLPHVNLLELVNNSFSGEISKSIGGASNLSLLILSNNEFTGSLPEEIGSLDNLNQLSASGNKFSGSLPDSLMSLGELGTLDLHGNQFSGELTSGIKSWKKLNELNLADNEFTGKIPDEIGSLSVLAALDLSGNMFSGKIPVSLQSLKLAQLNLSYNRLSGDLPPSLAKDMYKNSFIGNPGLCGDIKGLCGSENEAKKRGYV

[2] = target: T2, HSL1^Y261AR402A ectodomain (Arabidopsis) (UniProt Q9SGP2); experiment: as above
T2 sequence: T1 sequence with Y245A, R386A, A527N, A528Y, A550N

[3] = target: T3, BAM1 (BARELY ANY MERISTEM 1) ectodomain (Arabidopsis) (UniProt O49545); experiment: ITC; peptide (75 to 600 µM) injected into 10 to 30 µM HSL1 or BAM1 ectodomain in the cell; 25 °C; 20 mM sodium citrate pH 5.0, 150 mM NaCl; N fitted to 1; both purified
T3 sequence: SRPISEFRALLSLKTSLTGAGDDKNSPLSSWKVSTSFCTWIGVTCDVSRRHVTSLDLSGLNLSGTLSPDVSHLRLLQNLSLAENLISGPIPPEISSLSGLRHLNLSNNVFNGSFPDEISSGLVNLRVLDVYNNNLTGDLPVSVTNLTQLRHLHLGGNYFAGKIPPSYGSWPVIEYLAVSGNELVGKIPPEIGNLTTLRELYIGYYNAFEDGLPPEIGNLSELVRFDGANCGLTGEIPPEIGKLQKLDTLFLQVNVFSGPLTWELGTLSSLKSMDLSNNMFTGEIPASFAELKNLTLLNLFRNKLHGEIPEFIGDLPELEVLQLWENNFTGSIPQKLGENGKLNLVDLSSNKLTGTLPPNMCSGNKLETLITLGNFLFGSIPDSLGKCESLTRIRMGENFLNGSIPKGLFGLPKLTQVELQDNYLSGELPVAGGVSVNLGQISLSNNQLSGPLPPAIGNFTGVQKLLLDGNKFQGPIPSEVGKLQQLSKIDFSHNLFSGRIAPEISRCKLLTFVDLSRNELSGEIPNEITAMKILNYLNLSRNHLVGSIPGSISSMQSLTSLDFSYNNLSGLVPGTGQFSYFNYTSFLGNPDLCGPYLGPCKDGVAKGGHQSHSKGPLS

Binder | binding [1] | binding [2] | binding [3]
B1 | no binding | no binding | 
PIPPSGPNPLHN (peptide, UniProt Q9FZE4 109-120) [CLE9^R109PL110IV111P peptide] |  |  | no binding

Source: PMC8847575, “HSL1 and BAM1/2 impact epidermal cell development by sensing distinct signaling peptides” (Nature Communications, 2022)
